Measured values published in paper PMC13133773.
No constants are given. Whether binding was seen depends on the method and setting. Some results given as binding are weak or reduced against the parent protein; the word gives no strength. Where a sequence is shown, tags or fusion partners need not be part of it.

Experiments:
[1] = target: WW-domain containing protein 1 (WWP1), full-length, GAL4 fusion (human) (UniProt Q9H0M0); experiment: two-hybrid; serial dilution growth assay: co-transformed haploid AH109, dilutions 10^0 to 10^-4 spotted on DDO and QDO plates, 30°C for 3-4 days; HIS3 and ADE2 reporters
[2] = target: WW-domain containing protein 1 (WWP1), full-length, GAL4 fusion (human) (UniProt Q9H0M0); experiment: two-hybrid; quantitative β-galactosidase assay (lacZ reporter) of co-transformed haploid AH109; permeabilised cells in Z-buffer, X-gal staining solution in 96-well plate, read with ImageJ at t90 or t120

B1: WW domain binding protein 2 (WBP2), full-length, GAL4 fusion (protein, UniProt Q969T9 1-261)
chain: MALNKNHSEGGGVIVNNTESILMSYDHVELTFNDMKNVPEAFKGTKKGTVYLTPYRVIFLSKGKDAMQSFMMPFYLMKDCEIKQPVFGANYIKGTVKAEAGGGWEGSASYKLTFTAGGAIEFGQRMLQVASQASRGEVPSGAYGYSYMPSGAYVYPPPVANGMYPCPPGYPYPPPPPEFYPGPPMMDGAMGYVQPPPPPYPGPMEPPVSGPDVPSTPAAEAKAAEAAASAYYNPGNPHNVYMPTSQPPPPPYYPPEDKKTQ
For B1, the binding [1] was “binds” and the binding [2] was “binds”.
